For at least one compound, name, drawing or mass did not settle the structure.
Experiments:
[1] = Loading of minocycline and rifampin into pre-extracted and non-extracted silicone boots; type: physicochemical; details: for drug concentration in polymer: loading 1 hour in butyl acetate:methanol 85:15
Experimental: Molded, cured silicone (Dow-Q7 4850) boots designed to fit snuggly around Restore® implantable neurostimulators (Medtroinc, Inc.) were placed in a concentrated drug loading solution containing rifampin (30 mg/ml) and minocycline (15 mg/ml) in butyl acetate:methanol (85:15, by volume). The polymer was allowed to swell in this solution for one hour, rinsed and then dried overnight.
The efficiency of various solvents to extract material from cured silicone was tracked by determining the weight loss post-extraction. […] It was initially assumed that subjecting the polymer to drug loading should fulfill the same function as pre-extracting the material prior to drug loading.
One thought was that the existence of extractables in the loading solution might increase the solubility of the drugs in solution compared to solubility in the silicone, thus lowering the partitioning of drug into the silicone. Eight non-extracted silicone boots and 10 pre-extracted boots were drug loaded in separate loading solutions. Two additional pre-extracted silicone boots were then loaded in the formulation used to load the non-extracted boots. According to the hypothesis, the loading solution used for the non-extracted boots would theoretically contain higher levels of silicone extractables, and result in lower loading of the pre-extracted boots.

[2] = silicone discs, HPLC; called inconclusive

SMILES	drug concentration in polymer ([1]; non-extracted silicone boots) [mg/g]	drug concentration in polymer ([1]; silicone boots pre-extracted with butyl acetate) [mg/g]	increase in drug concentration, pre-extracted vs non-extracted ([1]; silicone boots, same lot) [%]	effect of pre-extraction on drug loading [2]
CN(C)c1ccc(O)c2c1C[C@H]1C[C@H]3[C@H](N(C)C)C(O)=C(C(N)=O)C(=O)[C@@]3(O)C(O)=C1C2=O [Minocycline, minocycline]	1.90	2.35	20.5	
C[C@@H]1C[C@H]2[C@@H]3CCC4=CC(=O)C=C[C@]4(C)[C@@]3(F)[C@@H](O)C[C@]2(C)[C@@]1(O)C(=O)CO [dexamethasone]				no significant increase in drug loading

— US9211252B2, “Increased drug loading capacity of polymeric material” (Medtronic, Inc., priority 2007, dated 2015)
